“And” between values parts separate entries of the source, which are not always exact repeats. Equal entries are not always repeated. Hit rate of the full screen: of about 350,000 compounds, about 6,000 (1.7%) were called active. Inconclusive means that the source gave no clear call. Such entries were picked first, then a sample of the others. Rule as the data show it: active = CPE inhibition above about 20% (passing the limit was not always enough); inconclusive = no clear call, values can overlap the other calls; tested in BHK-21 cells.
Assay: protection of cells from dengue 2 killing – plate reader, single concentration, primary screen (AID 651640);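 also: 0% = median of neutral control wells and 100% = median of positive control wells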
Settings: DENV2-infected cells, cytopathic effect rescue, at 9.99 µM, hits give high values

| SMILES | CPE inhibition |
| --- | --- |
| CC1=CC(C)(C)n2c(O)c(N=N)c3c(C)c(C)cc1c32 | inactive: -11.2% |
| Clc1cccc(N=NN2CCOCC2)c1Cl | inconclusive: 20% |
| CCC(=O)N1[C@H](C(=O)NC2CCCCC2)[C@@H](CO)[C@@H]2Cn3c(cccc3=O)[C@@H]21 | inactive: 2.86% |
| COc1cccc(S(=O)(=O)N[C@H]2CC[C@@H](CCn3cc(-c4ccccc4OC)nn3)O[C@@H]2CO)c1 | inconclusive: 32.2% |
| COC(=O)C[C@H]1C[C@H]2c3cc(NS(=O)(=O)c4ccccc4)ccc3O[C@H]2[C@H](CO)O1 | inconclusive: 52.6% |
| C[C@@H]1CCCCO[C@H](CN(C)C(=O)Nc2ccc3c(c2)OCO3)[C@H](C)CN([C@@H](C)CO)C(=O)c2cc(NC(=O)C3CCCCC3)ccc2O1 | inconclusive: 34.3% |
| CCNC(=O)C1(C)CCN(C(=O)c2cc(F)cc(F)c2)C1 (configuration not stated) | inconclusive: 49.2% |
| Fc1ccccc1-c1ccc(C2[C@@H]3CN(Cc4ccccc4)C[C@H]2N3)cc1 (some centres not stated) | inactive: 6.27% and inactive: -18.2% |
| COC(=O)CN1C(=O)C(C)(C)Oc2ccc(C(=O)Nc3ccccc3F)cc21 | inconclusive: 37% |
| CNC(=O)C[C@H]1CC[C@@H]2[C@H](COc3ccc(NC(=O)c4cc(C)on4)cc3C(=O)N2C)O1 | inactive: 1.13% |
| Cc1noc(C)c1S(=O)(=O)Nc1ccc2c(c1)C(=O)N([C@@H](C)CO)C[C@@H](C)[C@H](CN(C)S(=O)(=O)c1cn(C)cn1)OCCCC[C@@H](C)O2 | active: 37.4% |
| COc1cccc(CNC(=O)CCNC(=O)c2ccco2)c1 | inactive: -4.14% |
| COc1ccc(SC[C@H](C)CN2CC[C@H](C)CCC2=O)cc1 | inconclusive: 42.5% |
| Cc1ccc(-n2nc3c(Cl)nnc(C)c3c2C)cc1 | inconclusive: 32.9% |
| O=C(C[C@H]1C/C=C\C[C@@H](Cc2ccc(F)cc2)C(=O)O[C@H](c2ccccc2)CNC1=O)NCCO | inactive: -3.72% |
| COC(=O)c1cn(C(=O)c2ccc(OC)c(OC)c2)c2ccccc12 | active: 25.8% |
| C[C@H](CO)N1C[C@H](C)[C@H](CN(C)C(=O)Nc2ccccc2)Oc2ncc(-c3cc4ccccc4o3)cc2C1=O | inactive: -1.15% |
| O=S(=O)(c1ccc(F)cc1)c1nc(-c2ccco2)oc1NCCCn1ccnc1 | inconclusive: 28.6% |
| C[C@@H]1CN([C@H](C)CO)C(=O)c2cc(NC(=O)Nc3ccc(C(F)(F)F)cc3)ccc2O[C@H]1CN(C)S(C)(=O)=O | inactive: -1.36% |
| COC(=O)Cn1c2ccccc2c2nc(=O)cc(C)n21 | inactive: 5.99% |
| CCC(=O)N1[C@@H](C#N)[C@H](c2ccccc2-c2ccccc2)[C@@H]1CO | active: 46.8% |
| CC1CCN(c2ccccc2NC(=S)NC(=O)C(C)(C)C)CC1 | inactive: 1.21% |
| O=C(Nc1ccccc1)N1CC(=O)N2[C@H](C1)[C@H](c1ccc(C#CC3CCCCC3)cc1)[C@@H]2CO | inactive: -5.86% |
| C[C@@H]1CCCCO[C@H](CN(C)Cc2ccc(C(F)(F)F)cc2)[C@H](C)CN([C@H](C)CO)C(=O)c2cc(NC(=O)c3ccncc3)ccc2O1 | inconclusive: 21.6% |

Reprinted at random: five compounds from above.

| SMILES | CPE inhibition |
| --- | --- |
| Fc1ccccc1-c1ccc(C2[C@@H]3CN(Cc4ccccc4)C[C@H]2N3)cc1 (some centres not stated) | inactive: 6.27% and inactive: -18.2% |
| C[C@@H]1CCCCO[C@H](CN(C)Cc2ccc(C(F)(F)F)cc2)[C@H](C)CN([C@H](C)CO)C(=O)c2cc(NC(=O)c3ccncc3)ccc2O1 | inconclusive: 21.6% |
| COC(=O)CN1C(=O)C(C)(C)Oc2ccc(C(=O)Nc3ccccc3F)cc21 | inconclusive: 37% |
| O=C(C[C@H]1C/C=C\C[C@@H](Cc2ccc(F)cc2)C(=O)O[C@H](c2ccccc2)CNC1=O)NCCO | inactive: -3.72% |
| COC(=O)c1cn(C(=O)c2ccc(OC)c(OC)c2)c2ccccc12 | active: 25.8% |

More compounds

| SMILES | CPE inhibition |
| --- | --- |
| O=C(NNc1nc2cc3c(cc2s1)OCCO3)c1ccccc1 | inconclusive: 28.1% |
| C[C@@H]1CN([C@@H](C)CO)C(=O)c2cc(NS(=O)(=O)c3ccccc3)ccc2O[C@@H](C)CCCCO[C@H]1CN(C)Cc1ccncc1 | inactive: -3.09% |
| COc1ccc(-c2cc(C)no2)cc1S(=O)(=O)N1CCN(c2ccccc2F)CC1 | inconclusive: 22.4% |
| OC[C@H]1CC[C@@H]2O[C@H](CCc3ccc(-c4ccc(F)cc4)cc3)[C@@H](n3cc(C4CC4)nn3)C[C@@H]2O1 | inconclusive: 23% |
| COC(=O)C1=C(C(=O)OC)[C@@H]2Nc3ccccc3[C@@]23C[C@@H](C(=O)OC)N(C(=O)CC(C)C)C3=N1 | inactive: -18.6% |
| Cc1nn2c(nc(N3CCOCC3)c3ccccc32)c1C=C(C#N)C#N | inactive: 4.78% |
| O=C(N[C@@H]1CC[C@@H](CCNC(=O)C2CCOCC2)O[C@@H]1CO)c1ccncc1 | inconclusive: 78.4% |
| COc1ccc(CCNC(=O)CNC(=O)c2ccccc2Br)cc1OC | inconclusive: 32.4% |
| C[C@@H]1CN([C@@H](C)CO)S(=O)(=O)c2ccc(-c3cncnc3)cc2O[C@@H]1CN(C)Cc1ccncc1 | inconclusive: 22.1% |
| Cc1ccc(NC(=O)CN2C(=O)NC3(CCCCCC3)C2=O)cc1Cl | inconclusive: 20.7% |
| COc1ccc(NC(=O)N[C@H]2CC[C@H](CCNS(=O)(=O)c3cccc(Cl)c3)O[C@H]2CO)cc1 | inconclusive: 26.4% |
| CC(C)C[C@@H]1NC(=O)[C@H]2C[C@@H](C(=O)NCc3ccc(F)cc3)[C@@H](c3cccc(OCCO)c3)N2C1=O | inactive: 18.7% |
| COc1ccc2c3c(n(C)c2c1)[C@H](CO)N(C)CC31CN(C(=O)CN2CCOCC2)C1 | inconclusive: 43.6% |
| CCOC(=O)c1c(C)n(CC(O)CN(CC)CC)c2cc(Br)c(OC)cc12 (configuration not stated) | inactive: -12.5% |
| CCN(CC)Cc1c(O)c(Cl)cc2c(C)cc(=O)oc12 | inactive: 0.964% |
| CCOC(=O)c1c(NC(=O)COC(=O)Cc2c[nH]c3ccccc23)sc(C(=O)N(C)C)c1C | inconclusive: 28.4% |
| CCC(=O)N[C@@H]1C=C[C@H](CC(=O)NCC2CCCCC2)O[C@@H]1CO | inconclusive: 46.4% |
| CS(=O)(=O)NN1C(=O)c2ccccc2NC1c1cccc(O)c1 (configuration not stated) | inconclusive: 48.3% |
| CCN1CCN(c2ccc(S(=O)(=O)N3CCCCC3)cc2NC(=O)Cc2c(F)cccc2Cl)CC1 | inconclusive: 25.1% |
| CCCOc1ccc(-c2nn(-c3ccccc3)cc2/C=C2\SC(N)=NC2=O)cc1C | inactive: 12.4% |
| O=C([C@@H]1[C@@H](CO)[C@@H]2Cn3c(cccc3=O)[C@H]1N2C(=O)c1ccc(F)cc1)N1CCCCC1 | inactive: -4.37% |
| COc1ccc(C(=O)Nc2ccc3c(c2)OC[C@@H](C)N(C(C)=O)C[C@H](C)[C@H](OC)CN(C)C3=O)cc1 | inactive: 3.48% |
| O=C(Nc1ccc2[nH]ncc2c1)c1ccccc1Br | inconclusive: 20.1% |
| COc1ccc(CN(C)C[C@H]2Oc3c(NS(=O)(=O)c4ccc(C)cc4)cccc3C(=O)N([C@H](C)CO)C[C@@H]2C)cc1 | active: 31.3% |

| SMILES | CPE inhibition |
| --- | --- |
| CCN(CC)CCNC(=O)CNC(=O)c1nn(-c2ccc(OC)cc2OC)c(=O)c2ccccc12 | inconclusive: 29.5% |
| CCN(CCO)c1ccc(Nc2cc(-c3ccc(-c4ccccc4)cc3)ncn2)cc1 | inactive: 2.11% |
| O=C(C[C@@H]1C=C[C@H](NC(=O)Nc2ccc(C(F)(F)F)cc2)[C@@H](CO)O1)NCCN1CCCC1 | inactive: 13.6% |
| COc1ccc(NC(=O)N(C)C[C@@H]2OCCCC[C@@H](C)Oc3ccc(NC(=O)c4ccncc4)cc3C(=O)N([C@H](C)CO)C[C@H]2C)cc1 | active: 20.3% |
| CC1(C)CC2CC(C)(CN2Cc2c(O)ccc3ccccc23)C1 (configuration not stated) | inactive: -1.84% |
| C[C@H](CO)N1C[C@H](C)[C@H](CN(C)S(=O)(=O)c2cn(C)cn2)OCCCC[C@H](C)Oc2ccc(NC(=O)Nc3ccc(F)cc3)cc2C1=O | inactive: 10% |
| CN1C(=O)NC(NS(=O)(=O)c2ccc(N)cc2)(C(F)(F)F)C1=O (configuration not stated) | inactive: 17.5% |
| CCCCNC(=O)c1ccc(NS(=O)(=O)c2ccc3[nH]c(=O)[nH]c3c2)cc1 | active: 22.7% |
| CCNC(=O)CSc1nnc(-c2cccs2)o1 | inactive: -6.01% |
| CCCCOc1ccc(S(=O)(=O)NNC(=O)c2cc3ccccc3o2)cc1 | inactive: -5.4% |
| C#CCNC(=O)C1=C[C@H](C2CCCCC2)[C@@H](CCCO)[C@H](OCC)O1 | inconclusive: 28.9% |
| Cc1ccc2nc(-c3cccc(S(=O)(=O)N4CC(C)OC(C)C4)c3)cn2c1 (configuration not stated) | inconclusive: 26.9% |
| COc1ccc(S(=O)(=O)N2C[C@@H](O)COC[C@@H]3O[C@@H](CC(=O)N[C@H]4CCN(Cc5ccccc5)C4)CC[C@H]32)cc1 | inactive: -1.12% |
| C[C@@H]1CCCCO[C@@H](CN(C)C(=O)Nc2cccc3ccccc23)[C@@H](C)CN([C@H](C)CO)C(=O)c2cc(NS(=O)(=O)c3ccc(F)cc3)ccc2O1 | inconclusive: 20.3% |
| O=C(O)/C(=C\c1ccccc1OC(F)F)c1ccc(-c2ccccc2)cc1 | inconclusive: 21.7% |
| CCCCNC(=O)c1cc2c(C)cc(C)cc2[nH]1 | active: 57.1% |
| CO[C@H]1CN(C)C(=O)c2cc(NC(=O)CC(F)(F)F)ccc2OC[C@H](C)N(CC2CC2)C[C@H]1C | active: 54.4% |
| COc1cccc(C(c2c(NC(=O)c3ccco3)sc(C)c2C)N2CCOCC2)c1 (configuration not stated) | inconclusive: 67.9% |
| COCC(=O)N1C[C@H]2[C@@H](c3ccccc31)[C@@H](CO)N2C(=O)Nc1ccccc1F | inconclusive: 20.8% |
| COc1cc2cccc(OC)c(=O)c2c(OC)c1OC | inconclusive: 65.3% |
| C[C@H]1CN([C@@H](C)CO)S(=O)(=O)c2ccc(/C=C/c3ccccc3)cc2O[C@H]1CN(C)Cc1cncnc1 | inconclusive: 30.3% |
| Cc1ccc(-c2nc3ccccc3n2C(C(=O)NC(C)(C)C)C2CC2)cc1 (configuration not stated) | active: 31.1% |
| CC(C)NC(=O)Nc1ccc2c(c1)C(=O)N([C@H](C)CO)C[C@@H](C)[C@H](CN(C)C(=O)C1CCCCC1)OCCCC[C@@H](C)O2 | inconclusive: 41.6% |
| CO[C@H]1CN(C)C(=O)c2cc(NC(=O)C3CCC3)ccc2OC[C@@H](C)N(C)C[C@H]1C | inactive: 3% |

From PubChem BioAssay AID651640 (Broad Institute, 2012)
